Data as given in patent publication US10139420B2, “Methods for treating vaso-occlusive crisis using non-modified annexin V” (ISNERM (Institut National de la Sante et de la Recherche …, priority 2011, dated 2018).

Tested on: SAD transgenic mice
Assay: Vaso-occlusive crises in mice: renal artery blood flow velocity by Echo-Doppler, cardiac output, renal histology
Assay type: in vivo
Conditions: after intravenous injection (TSP1 1 mg/kg; MP 300.10^3 MP/mouse)
Method: We characterized the induction of VOC in SAD transgenic mice (18, 19) according to our previously published method, in response to the intravenous administration of TSP1 (1 mg/kg), TSP1-derived peptides 4N1-1 or 4N1-2, or purified erythrocyte MP. Briefly, mice were anesthetized with isoflurane and monitored to prevent any cardiorespiratory depression. Mice were shaved and placed in the decubitus position on a heating blanket (38° C.). We used a Vivid 7 echograph (GE Medical Systems®, Horten, Norway) equipped with a 12-MHz linear transducer (12 L). The ultrasound probe was placed on the left side of the abdomen for examination of renal arteries, or in left lateral decubitus for cardiac output acquisition with transducer on the chest. Data were transferred on-line to an EchoPAC ultrasound image analysis workstation (GE Medical Systems®). […] A pulsed Doppler spectrum was recorded and peak systolic, end-diastolic and time-average mean BFV were measured in the renal artery, with Doppler beam angle correction. To calculate cardiac output, spatial flow profiles were analyzed in parasternal long-axis B-mode images of the pulmonary artery and BFV were measured as above. […] Circulating MP were quantified by FACS.
We evaluated the concept that TSP1 influences VOC during SCD in vivo. […]

## TSP1: Human recombinant TSP1 produced by EMP-Genetech (Germany)
  cardiac output or heart rate: No changes; also recorded: no impact

Entries after “also recorded” stand apart in the source; their conditions may differ.
